Measurements from PubChem BioAssay AID2685 (National Center for Advancing Translational Sciences (NCATS), 2010).
The list shows a part of the results. Shown are side measurements of this screen, not its main read-out; they come without a call. Most of these compounds were active or inconclusive in the main read-out, so they are no random draw. The note in brackets gives the kind of curve behind each potency; many fits are weak.

Experiment: qHTS Assay for Lipid Storage Modulators in Drosophila S3 Cells;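 as to cell number change: cells counted by Cell Tracker Red CMTPX staining in the red channel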
Details: BODIPY lipid droplet fluorescence, 18-24 h; for cell number change: measured here: cell count max response, cells fed with added oleic acid
Summary of the method: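 Drosophila S3 cells got compounds at several concentrations plus oleic acid (400 uM solution). Laser-scanning cytometry with 488 nm excitation read lipid droplets at 500-530 nm and cells at 575-640 nm. Percent activity was relative to 20 uM Triacsin C.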

[1] = measured here: lipid fluorescence (Fed channel) AC50, cells fed with added oleic acid
[2] = measured here: cell number channel AC50, cells fed with added oleic acid

Structure (SMILES): c1ccc2c(CCNC3=NCCC3)c[nH]c2c1
- cell number change: -14.2%
- AC50 [1]: 0.0291 µM [rising, full curve, poor fit]

Structure (SMILES): CCCC(C)C1(CC)C(=O)NC(=Nc2ccc(OC)cc2)NC1=O (configuration not stated)
- cell number change: 0.565%
- AC50 [1]: 0.651 µM [falling, full curve, poor fit]

Structure (SMILES): C/C(=N\Nc1ccccc1)c1c(O)n(C)c(=O)n(C)c1=O
- cell number change: 30.2%
- AC50 [2]: 32.6 µM [rising, partial curve, poor fit]
- AC50 [1]: 0.0411 µM [rising, full curve]

Structure (SMILES): Clc1ccc(C(Cl)(Cl)Cl)c(Cl)c1
- cell number change: 17.7%
- AC50 [1]: 29.1 µM [rising, single point]

Structure (SMILES): CCCCn1c(=O)c(C(=O)NCc2ccc(Cl)cc2)c(O)c2ccccc21
- cell number change: 5.87%
- AC50 [1]: 25.9 µM [falling, single point]

Structure (SMILES): Cc1cc([N+](=O)[O-])c2ccccc2[n+]1[O-]
- cell number change: -45.8%
- AC50 [2]: 0.731 µM [falling, partial curve, poor fit]
- AC50 [1]: 0.651 µM [falling, full curve]

Structure (SMILES): O=C(CCC(=O)N1CC2C[C@@H](C1)Cn1c2cccc1=O)NCCc1ccccc1F
- cell number change: 33.7%
- AC50 [1]: 29.1 µM [rising, single point]

Structure (SMILES): O=C1NC(=O)N(c2ccc(Cl)cc2)C(=O)/C1=C\c1ccc(Sc2nc3ccccc3[nH]2)o1
- cell number change: -94.3%
- AC50 [2]: 29.1 µM [falling, single point]
- AC50 [1]: 4.61 µM [falling, single point]

Structure (SMILES): CCCSP1(=S)NCCCO1 (configuration not stated)
- cell number change: -0.814%
- AC50 [1]: 23.1 µM [rising, single point]

Structure (SMILES): CCOC(=O)N1CCN(C(C)C(=O)c2c[nH]c3ccccc23)CC1 (configuration not stated)
- cell number change: -23%
- AC50 [1]: 2.59 µM [falling, partial curve, poor fit]

Structure (SMILES): CCOC(=O)C1(CCOc2ccccc2)CCN(Cc2ccc(C)s2)CC1
- cell number change: -49.4%
- AC50 [2]: 23.1 µM [falling, single point]
- AC50 [1]: 25.9 µM [falling, single point]

Structure (SMILES): CNC(=O)Oc1cccc(-c2cn3cc(Cl)ccc3n2)c1
- cell number change: -13.6%
- AC50 [1]: 5.8 µM [rising, full curve]

Structure (SMILES): Nc1c(C(=O)NCC2CCCO2)c2nc3ccccc3nc2n1Cc1ccco1 (configuration not stated)
- cell number change: -28.2%
- AC50 [1]: 16.4 µM [falling, single point]

Structure (SMILES): COc1cccc(CCNCc2c(F)cccc2F)c1
- cell number change: -13.1%
- AC50 [1]: 6.51 µM [falling, partial curve]

Structure (SMILES): NC(=S)/N=C/c1c(O)[nH]c(=O)[nH]c1=O
- cell number change: -38.9%
- AC50 [2]: 0.0326 µM [rising, full curve, poor fit]
- AC50 [1]: 5.17 µM [falling, single point]

Structure (SMILES): Cc1ccc(C(=O)C2CN3CCC2CC3)cc1 (configuration not stated)
- cell number change: -207%
- AC50 [2]: 20.6 µM [falling, partial curve]
- AC50 [1]: 0.731 µM [falling, single point]

Structure (SMILES): CC1CN=C(Nc2ccc(F)cc2)S1 (configuration not stated)
- cell number change: 84.6%
- AC50 [2]: 4.11 µM [rising, full curve]
- AC50 [1]: 4.61 µM [rising, full curve]

Structure (SMILES): CC1C(C)N1CC(O)Cn1ccnc1[N+](=O)[O-] (configuration not stated)
- cell number change: 7.55%
- AC50 [1]: 0.461 µM [falling, full curve, poor fit]

Structure (SMILES): O=C(NC1CC1)C1CSC(c2cccnc2)=N1 (configuration not stated)
- cell number change: 25.1%

Structure (SMILES): c1coc(CNCCc2c[nH]c3ccccc23)c1
- cell number change: 5.77%
- AC50 [1]: 5.8 µM [falling, single point]

Structure (SMILES): O=C(COc1ccc2ccc(=O)oc2c1)N1C[C@H]2C[C@@H](C1)c1cccc(=O)n1C2
- cell number change: -11.3%
- AC50 [1]: 20.6 µM [falling, single point]

Structure (SMILES): Cc1cc(OCC(=O)NC(Cc2ccc(Cl)cc2)C(=O)O)c2c3c(c(=O)oc2c1)CCCC3 (configuration not stated)
- cell number change: 7.49%

Structure (SMILES): Cc1ccc(N2C(=O)CC(=O)NC2=O)c(C)c1
- cell number change: -4.18%

Structure (SMILES): CN1CCN(C(=O)COc2ccc(S(=O)(=O)NCc3ccccc3)cc2Cl)CC1
- cell number change: 36.7%
- AC50 [2]: 10.3 µM [rising, single point]

Structure (SMILES): CCN(CC)C(=O)c1ccc(N(Cc2ccccc2)S(C)(=O)=O)cc1
- cell number change: -0.702%

Structure (SMILES): CC1CCCCC1NC(=O)CNC(=S)N1CC2CC(C1)c1cccc(=O)n1C2 (configuration not stated)
- cell number change: -4.78%

Structure (SMILES): O=C(CN1CCCCC1)c1ccc(F)cc1
- cell number change: -31%
- AC50 [2]: 0.58 µM [falling, full curve, poor fit]
- AC50 [1]: 0.58 µM [falling, full curve, poor fit]

Structure (SMILES): CCCC(=O)NC(Oc1ccc(Cl)cc1Cl)C(Cl)(Cl)Cl (configuration not stated)
- cell number change: 22.9%

Structure (SMILES): c1ccc(CCN2CCC(N3CCN(c4ccccc4)CC3)CC2)cc1
- cell number change: -11.7%

Structure (SMILES): CC[C@@]1(O)C(=O)OCc2c1cc1n(c2=O)Cc2cc3ccccc3nc2-1
- cell number change: -9.51%

Structure (SMILES): COC(=O)C1=C(c2ccc(-c3ccccc3)c(F)c2)C[C@@H]2CC[C@H]1N2C(=O)NCCO
- cell number change: 19.3%
- AC50 [2]: 0.651 µM [falling, full curve]
- AC50 [1]: 0.651 µM [rising, single point]

Structure (SMILES): CC1CCCC(NC(=O)COC(=O)Cc2ccccc2)C1C (configuration not stated)
- cell number change: -49.2%
- AC50 [2]: 13 µM [falling, partial curve]

Structure (SMILES): Cc1ccc(S(=O)(=O)N(C)CCCC(=O)N2CCN(c3ccccn3)CC2)cc1
- AC50 [2]: 0.411 µM [rising, partial curve]

Structure (SMILES): CN(C)[C@@H]1C(=O)C(C(N)=O)=C(O)[C@@]2(O)C(=O)C3=C(O)c4c(O)ccc(Cl)c4[C@@](C)(O)[C@H]3C[C@@H]12
- cell number change: 0.872%
- AC50 [1]: 25.9 µM [falling, single point]

Structure (SMILES): CCCNc1nc(OC)nc(N2CC3CC(C2)c2cccc(=O)n2C3)n1 (configuration not stated)
- cell number change: -31.8%
- AC50 [2]: 0.206 µM [falling, full curve, poor fit]

Structure (SMILES): O=C1NC(=O)N(c2ccccc2F)C(=O)/C1=C/c1cn(CC(=O)N2CCOCC2)c2ccccc12
- cell number change: 2.63%

Structure (SMILES): CCCOP(=O)(c1ccc(N(C)C)cc1)C(O)c1cccnc1 (configuration not stated)
- AC50 [2]: 5.8 µM [rising, full curve]

Structure (SMILES): COC(=O)C1=C(c2cccc(OCc3ccccc3)c2)C[C@@H]2CC[C@H]1N2C(=O)NCc1cccc(C(F)(F)F)c1
- cell number change: -33%
- AC50 [2]: 4.11 µM [falling, single point]
- AC50 [1]: 4.61 µM [falling, single point]

Structure (SMILES): CCCNC(=O)N1[C@H]2CC[C@@H]1C(C(=O)OC)=C(c1ccc3ccccc3c1)C2
- cell number change: -9.39%
- AC50 [1]: 0.206 µM [rising, full curve, poor fit]
